From PMC7819943, “Rice protein-binding microarrays: a tool to detect cis-acting elements near promoter regions in rice”
The list shows a part of the results.

The chains behind the UniProt entries cited, without tags or fusion partners.
UniProt Q0JBA9, entry or part of it: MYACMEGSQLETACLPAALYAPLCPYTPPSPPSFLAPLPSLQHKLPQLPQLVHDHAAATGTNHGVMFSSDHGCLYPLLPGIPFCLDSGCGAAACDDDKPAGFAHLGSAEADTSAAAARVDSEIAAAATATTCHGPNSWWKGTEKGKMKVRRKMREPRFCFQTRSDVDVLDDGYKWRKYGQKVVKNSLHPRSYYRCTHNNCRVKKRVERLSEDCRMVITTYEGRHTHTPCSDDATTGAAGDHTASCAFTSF

What follows are sequences tested against OsWRKY34 (Oryza sativa, UniProt Q0JBA9 1-250) (assay: protein-binding microarray (RPBM); PBS, 2% BSA, 51.3 ng/ul salmon testes DNA, 50 uM zinc acetate, 200 nM TF, 25 C, 1 h; high values mean tight binding). Conditions: protein: recombinant; tags: N-terminal polyhistidine and DsRed monomer fusion (pET32a); label: CyDye5-dUTP incorporated in the synthesized complementary strand; 3' TTTTT single-stranded linker to array surface; dsDNA, one strand shown.
Procedure, shortened: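 Binding signal here means per-feature fluorescence intensity in arbitrary units. The values were read on an Axon 4000B scanner after a custom Agilent array, double-stranded by primer extension with Cy5-dUTP, was incubated with 200 nM protein at 25 °C for 1 h in PBS with 2% BSA, salmon testes DNA and 50 µM zinc acetate, then washed. The proteins were transcription factors with an N-terminal polyhistidine tag and DsRed, expressed in E. coli BL21-CodonPlus and purified on Ni–NTA.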
For “AGACTTTCCCAAGCCAGTTAGTTGACCATGACTTTTTCTCCGGAGTCACCTAGTGCAG”, the binding signal was 11100 fluorescence intensity (a.u.). “GCCTCCACCGCGGCGCGCGCCCACACACACACACACACTCCGGAGTCACCTAGTGCAG” was tested, and the binding signal was 10700 fluorescence intensity (a.u.). With “AGTGTTTGGTTTGAGGAGGACTAGTGGGGTGGTTTTTTGACGGAGTCACCTAGTGCAG” the binding signal was 13900 fluorescence intensity (a.u.). For “CGATCCGACGTCCTCTGCTCCTGCCTCCGCTCCGCTGCTTCGGAGTCACCTAGTGCAG”, the binding signal was 10100 fluorescence intensity (a.u.). For “ACAGCCTGTATTAGTTTTTCTTACATTTTTTCAGCTGATACGGAGTCACCTAGTGCAG”, the binding signal was 8180 fluorescence intensity (a.u.). “GGGGTTTGCTATTCTGGCTCTCTATTAAGCTCATAAAAAACGGAGTCACCTAGTGCAG” was tested, and the binding signal was 23500 fluorescence intensity (a.u.). In the case of “ATCCCTCATCACCGTCGTCTACCTCCCACCCTCTCTCTCTCGGAGTCACCTAGTGCAG”, the binding signal was 8450 fluorescence intensity (a.u.). In the case of “CGCCCATGCGAGGACGCAGCCATCCATCCATCCACCCAGCCGGAGTCACCTAGTGCAG”, the binding signal was 8720 fluorescence intensity (a.u.). For “GTATTGCTGGGGTCGATGTCTTCATTGTGAAGTGCTGATACGGAGTCACCTAGTGCAG”, the binding signal was 13100 fluorescence intensity (a.u.). For “AACGCGCACACATTACGCTATAAATATACACACATCCTACCGGAGTCACCTAGTGCAG”, the binding signal was 9070 fluorescence intensity (a.u.). In the case of “CACCGTGTCGCTCTCTCTCGTCGTCTCCGCCTCCGGCTTCCGGAGTCACCTAGTGCAG”, the binding signal was 19600 fluorescence intensity (a.u.). In the case of “GCACTTTCTCATAATGAACTATAGAGACGTGGAGTTGGGTCGGAGTCACCTAGTGCAG”, the binding signal was 8460 fluorescence intensity (a.u.). For “GGAGGCGGTGGTGGTATTCGGAGGCGAGCAGCTTGAGGCGCGGAGTCACCTAGTGCAG”, the binding signal was 9370 fluorescence intensity (a.u.). “ATAATGCTCTTGCCTCCTCGCCAACCAAGCCGCACACACCCGGAGTCACCTAGTGCAG” was tested, and the binding signal was 8270 fluorescence intensity (a.u.). With “AGTAGTCTCCGTCTTCGTCCTCTTCCTTCTTGTTTAATAACGGAGTCACCTAGTGCAG” the binding signal was 8930 fluorescence intensity (a.u.). “ATTTACGTCATCATTTCGTGTATCATTTCTCTCGATGATTCGGAGTCACCTAGTGCAG” was tested, and the binding signal was 9820 fluorescence intensity (a.u.). In the case of “TGCTTAACTTCTATGATTTACCATCGCCGTCCAGTTAGTCCGGAGTCACCTAGTGCAG”, the binding signal was 9830 fluorescence intensity (a.u.). In the case of “CTCAACCCGTCGCTCACCATCGCCTTCGCCGCGCTCCGCCCGGAGTCACCTAGTGCAG”, the binding signal was 10100 fluorescence intensity (a.u.). In the case of “ATCTCACCACCCAACCCGTTCGGATTAGATAGCCCGCTTCCGGAGTCACCTAGTGCAG”, the binding signal was 8280 fluorescence intensity (a.u.). “ATATAATTTCTTACTTTCTCAGATGTGTCCTTATTCATGTCGGAGTCACCTAGTGCAG” was tested, and the binding signal was 9380 fluorescence intensity (a.u.). “TGCTCCAACTGCCAAGTACTAGTCGCTGCGGTCACTCTGTCGGAGTCACCTAGTGCAG” was tested, and the binding signal was 8240 fluorescence intensity (a.u.). “TCTCTCACATAGGTTATTGGATTTCGTGTTGTAGCCGGCTCGGAGTCACCTAGTGCAG” was tested, and the binding signal was 9940 fluorescence intensity (a.u.). For “GCAGTCGGTTCGCGTTTGTTTTTTTTCTTTCTTTCTTTTTCGGAGTCACCTAGTGCAG”, the binding signal was 18400 fluorescence intensity (a.u.). With “CTAGCCGTGTCCGCCTCTGCCACGCCACCACGACACGAGTCGGAGTCACCTAGTGCAG” the binding signal was 8200 fluorescence intensity (a.u.). With “CTGTACAATTTTTTGTTTCCGGTAGACCATCAGCACTTCACGGAGTCACCTAGTGCAG” the binding signal was 8880 fluorescence intensity (a.u.). For “ATATATAAAGTTTTTAGACCGTTCTGTTTAGGGGCCGGGGCGGAGTCACCTAGTGCAG”, the binding signal was 10800 fluorescence intensity (a.u.). In the case of “GTATTTCTATATGGACTCTGTCTTTTCTTTTCTCCGATTACGGAGTCACCTAGTGCAG”, the binding signal was 9860 fluorescence intensity (a.u.). For “CCCCGCCGCCGCCGCCGCCGCCTCGCCTCCGTTGCAACCGCGGAGTCACCTAGTGCAG”, the binding signal was 8450 fluorescence intensity (a.u.). “ATATAAGATGACAAAGTAGTAGTTGTATTCTCAATTTATACGGAGTCACCTAGTGCAG” was tested, and the binding signal was 10700 fluorescence intensity (a.u.). “TTTGCTTCTCTGAAAATTGTCTTGTTCTCTCCAGGTTCCACGGAGTCACCTAGTGCAG” was tested, and the binding signal was 8310 fluorescence intensity (a.u.). With “GCTTTGATCATAGATGGTTTGCTGCGATTTGTAGGGTAGCCGGAGTCACCTAGTGCAG” the binding signal was 8140 fluorescence intensity (a.u.). “ATTTTATATGATTGCTCTTTTTTAATTTTTTTTTTGCTATCGGAGTCACCTAGTGCAG” was tested, and the binding signal was 9080 fluorescence intensity (a.u.). “CCTATAAGAGTTCAAATCCCATCCGATATTGCCTTTTTTTCGGAGTCACCTAGTGCAG” was tested, and the binding signal was 8510 fluorescence intensity (a.u.). “CTGCCTTCCGTGCGCGGTCCTTCGGCTCTACTTGGATGCTCGGAGTCACCTAGTGCAG” was tested, and the binding signal was 9890 fluorescence intensity (a.u.). In the case of “AAGTCTCTAGTCATGATACTCCCGGTCCCATGTCACCGACCGGAGTCACCTAGTGCAG”, the binding signal was 8100 fluorescence intensity (a.u.). “GAGGTCTACTGTTATTGGGGATTCTTTTTGGGTGGGGTGGCGGAGTCACCTAGTGCAG” was tested, and the binding signal was 31300 fluorescence intensity (a.u.). For “ATTCACTTGATTTGGTTGCTGCTTTTTCTCCATTCTCGTTCGGAGTCACCTAGTGCAG”, the binding signal was 9090 fluorescence intensity (a.u.). In the case of “ACGACCACGTCGCCGTCGCGCAACCCATCCATCCATCCATCGGAGTCACCTAGTGCAG”, the binding signal was 8280 fluorescence intensity (a.u.). With “TTTTCCTTTTTTTTCTTTTTTCCATATATATATATATATACGGAGTCACCTAGTGCAG” the binding signal was 8610 fluorescence intensity (a.u.). “ATTCAGATCCACCCGCGTCTTCTCTTCTCCCCTCTCGTCCCGGAGTCACCTAGTGCAG” was tested, and the binding signal was 8190 fluorescence intensity (a.u.). For “CGCTGCTGCTGACTTGTGGGCTCCCACGGCCTCTCCTGGTCGGAGTCACCTAGTGCAG”, the binding signal was 8110 fluorescence intensity (a.u.). “GGAGTATATAAATATATATATTAAATACAACTCTAGACTACGGAGTCACCTAGTGCAG” was tested, and the binding signal was 26700 fluorescence intensity (a.u.).
